The test addresses connexin43 (mouse (endogenous in primary osteoblasts)) (UniProt P23242). Nature of the test: co-IP; Pierce Co-immunoprecipitation Kit; lysate of primary osteoblasts; Cx43 antibody for the bait added at 1:30, overnight; eluate blotted for E11 and beta-actin; rabbit IgG as negative control.

The chains behind the UniProt entries cited, without tags or fusion partners.
UniProt P23242: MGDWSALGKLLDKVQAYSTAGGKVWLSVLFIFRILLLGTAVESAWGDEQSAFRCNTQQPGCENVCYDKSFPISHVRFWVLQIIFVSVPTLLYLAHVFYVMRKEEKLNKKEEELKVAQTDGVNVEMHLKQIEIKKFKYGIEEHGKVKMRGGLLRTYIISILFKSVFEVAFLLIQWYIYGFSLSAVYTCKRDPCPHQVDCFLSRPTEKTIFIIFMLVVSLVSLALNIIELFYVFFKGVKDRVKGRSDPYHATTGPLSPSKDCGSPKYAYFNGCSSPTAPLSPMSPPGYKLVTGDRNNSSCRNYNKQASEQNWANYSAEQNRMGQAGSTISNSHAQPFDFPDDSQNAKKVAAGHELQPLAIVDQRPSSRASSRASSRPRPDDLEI

The source of these data is publication PMC8495393.

These are yes or no findings as the source states them, for the method shown. Binding seen in cells or lysates may run through a third protein. Some results given as binding are weak or reduced against the parent protein; the word gives no strength.

B1: E11 (protein, UniProt Q62011 23-172)
chain: GTIGVNEDDIVTPGTGDGMVPPGIEDKITTTGATGGLNESTGKAPLVPTQRERGTKPPLEELSTSATSDHDHREHESTTTVKVVTSHSVDKKTSHPNRDNAGDETQTTDKKDGLPVVTLVGIIVGVLLAIGFVGGIFIVVMKKISGRFSP
On to B1, for which the binding entry is “binds”.
